According to publication PMC3460625:
Results are given in words; binding and its absence hold for the method and conditions named. Some binding calls cover weakened binding; strength is not graded here.

The chains behind the UniProt entries cited, without tags or fusion partners. Residues count along the entry.
UniProt P52948, residues 1-880: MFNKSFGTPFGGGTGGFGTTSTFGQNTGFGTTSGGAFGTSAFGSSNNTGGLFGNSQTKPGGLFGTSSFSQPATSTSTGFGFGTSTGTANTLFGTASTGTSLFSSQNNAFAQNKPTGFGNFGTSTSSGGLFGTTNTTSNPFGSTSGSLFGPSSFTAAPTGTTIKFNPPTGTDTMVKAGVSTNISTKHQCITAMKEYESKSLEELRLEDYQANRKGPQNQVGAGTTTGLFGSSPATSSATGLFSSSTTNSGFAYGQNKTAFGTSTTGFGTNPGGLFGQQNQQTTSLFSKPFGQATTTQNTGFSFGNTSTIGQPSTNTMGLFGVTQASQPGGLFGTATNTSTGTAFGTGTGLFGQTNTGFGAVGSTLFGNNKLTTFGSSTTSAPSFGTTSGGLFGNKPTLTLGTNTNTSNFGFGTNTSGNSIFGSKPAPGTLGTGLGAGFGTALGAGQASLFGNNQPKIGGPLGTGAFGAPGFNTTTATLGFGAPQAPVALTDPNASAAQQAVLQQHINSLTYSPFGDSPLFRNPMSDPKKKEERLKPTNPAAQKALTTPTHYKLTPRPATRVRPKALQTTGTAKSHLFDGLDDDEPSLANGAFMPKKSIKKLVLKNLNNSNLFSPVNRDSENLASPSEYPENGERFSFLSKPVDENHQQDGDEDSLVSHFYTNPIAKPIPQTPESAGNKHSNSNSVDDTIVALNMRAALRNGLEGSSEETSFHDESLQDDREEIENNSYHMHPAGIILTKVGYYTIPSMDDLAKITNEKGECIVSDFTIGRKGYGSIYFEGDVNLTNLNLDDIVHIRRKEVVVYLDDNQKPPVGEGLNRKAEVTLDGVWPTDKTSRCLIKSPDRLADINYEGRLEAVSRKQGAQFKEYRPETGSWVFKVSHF

Legend:
[1] = biological target: Nup98 (endogenous) (human (endogenous in HEK 293 and HeLa)) (UniProt P52948); assay: sucrose gradient sedimentation
[2] = biological target: Nup98 (endogenous) (human (endogenous in HEK 293 and HeLa)) (UniProt P52948); assay: SEC

- binding [1]: binds
- binding [2]: binds
B1: Rae1 (endogenous) (protein, UniProt P78406 1-368)
chain: MSLFGTTSGFGTSGTSMFGSATTDNHNPMKDIEVTSSPDDSIGCLSFSPPTLPGNFLIAGSWANDVRCWEVQDSGQTIPKAQQMHTGPVLDVCWSDDGSKVFTASCDKTAKMWDLSSNQAIQIAQHDAPVKTIHWIKAPNYSCVMTGSWDKTLKFWDTRSSNPMMVLQLPERCYCADVIYPMAVVATAERGLIVYQLENQPSEFRRIESPLKHQHRCVAIFKDKQNKPTGFALGSIEGRVAIHYINPPNPAKDNFTFKCHRSNGTNTSAPQDIYAVNGIAFHPVHGTLATVGSDGRFSFWDKDARTKLKTSEQLDQPISACCFNHNGNIFAYASSYDWSKGHEFYNPQKKNYIFLRNAAEELKPRNKK
